According to PMC5626782:
No constants are given. Whether binding was seen depends on the method and setting. Binding seen in cells or lysates may run through a third protein. Some entries that bind do so weakly or less than the wild type.

Chains of the proteins cited; added tags and fusions are not shown. Residues count along the entry.
UniProt Q61282, residues 20-2132: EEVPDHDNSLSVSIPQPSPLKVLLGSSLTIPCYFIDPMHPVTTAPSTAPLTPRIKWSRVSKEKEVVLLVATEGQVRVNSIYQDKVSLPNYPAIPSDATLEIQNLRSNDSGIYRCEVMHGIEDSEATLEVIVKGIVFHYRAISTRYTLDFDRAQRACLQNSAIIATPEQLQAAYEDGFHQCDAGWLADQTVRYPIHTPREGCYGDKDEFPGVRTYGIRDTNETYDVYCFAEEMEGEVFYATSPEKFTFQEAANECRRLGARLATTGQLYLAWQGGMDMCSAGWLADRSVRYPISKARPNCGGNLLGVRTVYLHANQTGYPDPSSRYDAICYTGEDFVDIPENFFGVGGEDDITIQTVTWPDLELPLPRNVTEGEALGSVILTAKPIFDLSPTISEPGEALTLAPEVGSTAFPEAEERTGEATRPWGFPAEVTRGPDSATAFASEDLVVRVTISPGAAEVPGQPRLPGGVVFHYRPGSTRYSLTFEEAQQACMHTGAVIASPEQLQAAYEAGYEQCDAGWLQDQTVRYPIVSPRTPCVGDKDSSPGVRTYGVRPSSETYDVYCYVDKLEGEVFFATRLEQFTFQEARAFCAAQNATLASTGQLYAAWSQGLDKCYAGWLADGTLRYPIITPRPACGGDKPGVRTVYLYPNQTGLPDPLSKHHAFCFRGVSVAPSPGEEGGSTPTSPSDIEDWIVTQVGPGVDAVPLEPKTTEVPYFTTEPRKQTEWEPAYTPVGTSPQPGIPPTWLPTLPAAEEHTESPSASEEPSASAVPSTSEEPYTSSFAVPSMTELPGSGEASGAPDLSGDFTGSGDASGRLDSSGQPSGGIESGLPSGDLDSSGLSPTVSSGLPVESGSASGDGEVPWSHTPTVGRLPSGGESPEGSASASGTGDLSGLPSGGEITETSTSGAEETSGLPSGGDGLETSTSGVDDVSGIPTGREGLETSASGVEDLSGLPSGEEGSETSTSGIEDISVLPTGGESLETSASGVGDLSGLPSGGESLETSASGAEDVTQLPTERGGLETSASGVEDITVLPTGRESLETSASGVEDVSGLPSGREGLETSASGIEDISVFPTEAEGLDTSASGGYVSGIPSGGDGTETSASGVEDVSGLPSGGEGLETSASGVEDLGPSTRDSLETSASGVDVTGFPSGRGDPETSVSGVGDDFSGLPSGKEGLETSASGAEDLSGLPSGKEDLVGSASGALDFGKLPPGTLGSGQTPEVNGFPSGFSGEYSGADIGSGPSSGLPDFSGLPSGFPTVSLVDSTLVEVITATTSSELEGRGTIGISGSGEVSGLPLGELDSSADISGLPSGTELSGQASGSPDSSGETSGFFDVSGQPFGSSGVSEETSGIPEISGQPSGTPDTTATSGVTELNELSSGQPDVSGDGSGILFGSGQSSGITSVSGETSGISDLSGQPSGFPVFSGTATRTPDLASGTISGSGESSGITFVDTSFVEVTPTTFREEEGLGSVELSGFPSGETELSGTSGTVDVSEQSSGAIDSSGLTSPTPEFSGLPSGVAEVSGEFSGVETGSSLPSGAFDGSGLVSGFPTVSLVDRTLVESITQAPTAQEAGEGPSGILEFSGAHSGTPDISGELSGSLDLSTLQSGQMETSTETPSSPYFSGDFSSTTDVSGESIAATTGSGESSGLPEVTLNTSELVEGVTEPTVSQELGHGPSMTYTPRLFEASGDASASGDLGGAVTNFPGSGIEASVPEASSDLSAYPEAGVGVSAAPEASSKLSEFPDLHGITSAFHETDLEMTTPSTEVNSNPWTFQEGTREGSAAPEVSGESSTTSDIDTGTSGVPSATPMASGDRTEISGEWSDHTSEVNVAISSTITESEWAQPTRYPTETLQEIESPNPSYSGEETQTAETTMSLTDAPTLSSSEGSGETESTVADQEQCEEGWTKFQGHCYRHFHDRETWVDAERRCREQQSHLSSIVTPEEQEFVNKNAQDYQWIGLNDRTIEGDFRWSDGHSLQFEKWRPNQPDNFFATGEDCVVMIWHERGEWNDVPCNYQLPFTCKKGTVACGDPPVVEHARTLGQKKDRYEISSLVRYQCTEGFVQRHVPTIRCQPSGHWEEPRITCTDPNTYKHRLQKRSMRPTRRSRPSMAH
UniProt P63073: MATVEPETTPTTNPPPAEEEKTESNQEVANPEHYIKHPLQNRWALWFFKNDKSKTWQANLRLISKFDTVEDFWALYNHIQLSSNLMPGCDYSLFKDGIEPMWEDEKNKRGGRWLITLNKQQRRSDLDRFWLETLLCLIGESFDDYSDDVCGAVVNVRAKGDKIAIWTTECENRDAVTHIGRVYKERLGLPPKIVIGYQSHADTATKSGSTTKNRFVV
UniProt P80206: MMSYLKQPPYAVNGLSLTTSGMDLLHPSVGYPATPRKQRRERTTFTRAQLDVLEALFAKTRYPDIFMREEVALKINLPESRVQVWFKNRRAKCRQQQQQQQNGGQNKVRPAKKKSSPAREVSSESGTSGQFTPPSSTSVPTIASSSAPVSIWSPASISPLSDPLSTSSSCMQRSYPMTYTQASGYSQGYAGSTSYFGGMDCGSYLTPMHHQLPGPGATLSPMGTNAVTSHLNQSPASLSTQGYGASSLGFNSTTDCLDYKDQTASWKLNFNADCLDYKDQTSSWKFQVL

Assays:
[1] = molecular target: aggrecan (aggrecan-CSPG, chondroitin sulfate proteoglycan) (mouse (endogenous in V1 lysate)) (UniProt Q61282); test: co-IP; mouse V1 lysates without ChABC; protein A beads conjugated to 2.5 ug anti-Otx2, anti-aggrecan or anti-eIF4E antibody (normal rabbit IgG as control); precipitates analysed by immunoblotting
[2] = molecular target: translation initiation factor eIF4E (mouse (endogenous in V1 lysate)) (UniProt P63073); test: as above
[3] = molecular target: aggrecan (aggrecan-CSPG, chondroitin sulfate proteoglycan) (mouse (endogenous in V1 lysate)) (UniProt Q61282); test: condition: only cortical lysates pre-incubated with ChABC (chondroitinase ABC); co-IP; mouse V1 lysates pre-incubated with chondroitinase ABC (ChABC); protein A beads conjugated to anti-Otx2 or anti-aggrecan antibody; precipitates analysed by immunoblotting
[4] = molecular target: Otx2 homeoprotein (mouse (endogenous in V1 lysate)) (UniProt P80206); test: co-IP; mouse V1 lysates without ChABC; protein A beads conjugated to 2.5 ug anti-Otx2, anti-aggrecan or anti-eIF4E antibody (normal rabbit IgG as control); precipitates analysed by immunoblotting

| binding [1] | binding [2] | binding [3] | binding [4] | Substance |
| --- | --- | --- | --- | --- |
| binds | binds | no binding | – | Otx2 homeoprotein (from UniProt P80206 1-289) |
| – | – | – | binds | translation initiation factor eIF4E (from UniProt P63073 1-217) |
